Experimental data from the supplement of paper PMC7580552.
Where a name gives a salt, the structure may show the parent alone. The list shows a part of the results. Part of the spread comes from offsets between plates or batches.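 The strain is a K-12 laboratory model grown without shaking in 96-well plates, and biofilm is the crystal violet stain retained on the wells, read as absorbance. Drugs were picked as candidate specific biofilm blockers when they cut staining strongly but slowed free-floating growth by less than 70%.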

tested on: Escherichia coli W3110; assay: biofilm formation (crystal violet staining) relative to untreated control; higher = more biofilm; conditions: 10 µM; 20-24 h; 30 °C; TB

Q: Which biofilm formation does the source give for CC(=O)c1ccc2c(c1)N(CCCN(C)C)c1ccccc1S2 [Acetopromazine maleate salt] here?
A: 62%

Q: For Oc1c(I)cc(Cl)c2cccnc12 [Clioquinol], which biofilm formation is on record?
A: 11%

Q: Which biofilm formation does the source give for CC(C)(C#N)c1cc(Cn2cncn2)cc(C(C)(C)C#N)c1 [Anastrozole] here?
A: 103%

Q: For CN(C(=O)C(Cl)Cl)c1ccc(OC(=O)c2ccco2)cc1 [Diloxanide furoate], which biofilm formation is on record?
A: 54%

Q: For Nc1ccn([C@H]2CC[C@@H](CO)O2)c(=O)n1 [Zalcitabine], which biofilm formation is on record?
A: 94%

Q: How did the biofilm formation turn out when CN1CCN(CCCN2c3ccccc3Sc3ccc(C(F)(F)F)cc32)CC1 [Trifluoperazine dihydrochloride] was run?
A: 85%

Q: How did the biofilm formation turn out when COc1ccc(OC)c(C(O)CNC(=O)CN)c1 (stereo not drawn) [Midodrine hydrochloride] was run?
A: 84%

Q: Which biofilm formation does the source give for CN(C)CCN1C(=O)c2ccccc2N(C)c2ccccc21 [Dibenzepine hydrochloride] here?
A: 73%

Q: Which biofilm formation does the source give for OC(CNCC(O)C1CCc2cc(F)ccc2O1)C1CCc2cc(F)ccc2O1 (stereo not drawn) [Nebivolol hydrochloride] here?
A: 72%

Q: For CC[C@H](C)[C@H](N)C1=N[C@H](C(=O)N[C@@H](CC(C)C)C(=O)N[C@H](CCC(=O)O)C(=O)N[C@H](C(=O)N[C@H]2CCCCNC(=O)[C@H](CC(N)=O)NC(=O)[C@@H](CC(=O)O)NC(=O)[C@H](Cc3cnc[nH]3)NC(=O)[C@@H](Cc3ccccc3)NC(=O)[C@H]([C@@H](C)CC)NC(=O)[C@@H](CCCN)NC2=O)[C@@H](C)CC)CS1 [Bacitracin], which biofilm formation is on record?
A: 29%

Q: CC(=O)NCCCS(=O)(=O)O [Acamprosate calcium] was tested. Which biofilm formation did it give?
A: 101%

Q: CCOC(=O)O[C@]1(C(=O)COC(=O)CC)CC[C@H]2[C@@H]3CCC4=CC(=O)C=C[C@]4(C)[C@H]3[C@@H](O)C[C@@]21C [Prednicarbate] was tested. Which biofilm formation did it give?
A: 69%

Q: Which biofilm formation does the source give for CC(C)(C)NCC(O)COc1cccc2c1CCC(=O)N2 (stereo not drawn) [Carteolol hydrochloride] here?
A: 70%

Q: C=C1c2c(Cl)ccc(O)c2C(=O)C2=C(O)[C@]3(O)C(=O)C(C(N)=O)=C(O)[C@@H](N(C)C)[C@@H]3[C@@H](O)[C@H]12.O=C(O)c1cc(S(=O)(=O)O)ccc1O [Meclocycline sulfosalicylate] was tested. Which biofilm formation did it give?
A: 45%

Q: Which biofilm formation does the source give for COc1ccc2c(c1)c(CC(=O)O)c(C)n2C(=O)c1ccc(Cl)cc1 [Indomethacin] here?
A: 48%

Q: With CN1CCC(=C2c3ccccc3CCc3cccnc32)CC1 [Azatadine maleate] as the compound, how does the biofilm formation read?
A: 97%

Q: For Nc1nc2ccc(OC(F)(F)F)cc2s1 [Riluzole hydrochloride], which biofilm formation is on record?
A: 60%

Q: Which biofilm formation does the source give for C(=C\c1ccccc1)/CN1CCN(C(c2ccccc2)c2ccccc2)CC1 [Cinnarizine] here?
A: 48%
